According to patent US20050070689A1 (Genentech, published 2005):
These are yes or no findings as the source states them, for the method shown. Some binding calls cover weakened binding; strength is not graded here. For part of these data: Sequences can lack the tags named with a protein.

The chains behind the UniProt entries cited, without tags or fusion partners. Where a name states a change or a piece, a line headed by the entry shows the natural chain unless it says otherwise.
UniProt P01375: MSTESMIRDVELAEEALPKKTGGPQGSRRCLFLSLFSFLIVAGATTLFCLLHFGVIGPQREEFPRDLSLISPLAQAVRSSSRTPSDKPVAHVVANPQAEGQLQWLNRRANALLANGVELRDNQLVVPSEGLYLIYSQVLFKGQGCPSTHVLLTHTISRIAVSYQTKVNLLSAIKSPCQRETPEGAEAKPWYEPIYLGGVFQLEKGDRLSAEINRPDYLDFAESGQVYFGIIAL
UniProt Q96RJ3: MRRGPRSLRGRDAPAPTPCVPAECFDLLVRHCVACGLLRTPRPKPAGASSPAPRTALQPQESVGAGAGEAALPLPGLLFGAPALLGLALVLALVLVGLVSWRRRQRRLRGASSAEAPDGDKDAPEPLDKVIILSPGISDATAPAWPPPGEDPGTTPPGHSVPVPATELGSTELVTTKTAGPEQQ

Key:
[1] = target: chimeric ligand with the intracellular and transmembrane regions from TNF-alpha and the extracellular region of TALL-1 (aa 75-285), on transfected COS 7 cells (human) (UniProt P01375); assay: receptor-Fc staining of transfected COS 7 cells, biotinylated anti-human antibody and Cy3-streptavidin
[2] = target: chimeric ligand with the intracellular and transmembrane regions from TNF-alpha and the extracellular region of TALL-1 (aa 75-285), on transfected COS 7 cells (human) (UniProt P01375); assay: receptor-Fc (1 µg/ml) staining of transfected COS 7 cells, biotinylated anti-human antibody and Cy3-streptavidin

| binding [1] | binding [2] | Molecule |
| --- | --- | --- |
| binds | – | hBR3-hFc (from UniProt Q96RJ3 2-62) (Fc fusion) |
| binds | – | Murine BR3-Fc (Fc fusion, Only 'prepared as described above' is said; also called mBR3-hFc; not shown: human IgG1 Fc region) MGARRLRVRSQRSRDSSVPTQCNQTECFDPLVRNCVSCELFHTPDTGHTSSLEPGTALQPQEGSALRPDVA |
| – | binds | TACI-hFc (Fc fusion, not shown: a dimerising Fc or GST) SGLGRSRRGGRSRVDQEERFPQGLWTGVAMRSCPEEQYWDPLLGTCMSCKTICNHQSQRTCAAFCRSLSCRKEQGKFYDHLLRDCISCASICGQHPKQCAYFCENKLRSPVNLPPELRRQRSGEVENNSDNSGRYQGLEHRGSEASPALPGLKLSADQVALVYST |
